Measured values from PubChem BioAssay AID504834 (National Center for Advancing Translational Sciences (NCATS), 2011).
Hit rate of the full screen: of about 320,000 compounds, about 22,000 (6.9%) were called active. This list was built around the results that the source calls inconclusive (neither active nor inactive); the mix of calls is not that of the screen. Calls follow the shape of the dose curve; as a rule, active = well fitted inhibition curve with a large enough effect; inconclusive = small, poorly fitted or top-dose-only effect, or another doubt; inactive = no such curve, though single readings can be large or run the other way. Potencies beside an inconclusive call are fits to weak or partial responses and may not hold up.

Experiment: Primary qHTS for delayed death inhibitors of the malarial parasite plastid, 96 hour incubation
Conditions: P. falciparum luciferase reporter growth; series mostly up to 28.7 µM; activity change, negative = inhibition: at the top concentration
Summary of the method: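 Delayed-death screen, second-generation endpoint: infected erythrocytes, 2% hematocrit, 0.05% parasitemia final; 96 hours at 37 C, 5% CO2; luciferase detection reagent; luminescence decrease equals reduced growth.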
% is scaled to controls: 0 for no effect and ±100 for the full control effect; potency is read from the fitted curve at half-maximal effect.

SMILES	activity change, negative = inhibition	Potency
O=[N+]([O-])/C(C(Cl)=C(Cl)Cl)=C(\Sc1ccccc1)N1CCCCC1	inactive: 0%	–
O=C(CCl)Nc1cc2[nH]c(=O)[nH]c2cc1Br	–	active: 7.38 µM
CC(=O)Nc1ccc(NC(=S)NC(=O)C2CCCC2)cc1	inactive: 0%	–
CN(CCOC(=O)c1cccc(Br)c1)C(C)(C)C	–	inconclusive: 10.4 µM [inhibitor, single point]
Cc1ccc(S(=O)(=O)N2CCCC2)cc1C(=O)N1CCN(Cc2ccccc2)CC1	–	inconclusive: 18.5 µM [inhibitor, single point]
Cc1ccc(S(=O)(=O)N2CCC(=O)N(C(COCc3ccc(C(F)(F)F)cc3)Cc3ccccc3)CC2)cc1 (stereo unspecified)	–	active: 7.38 µM
Cc1ccc(Nc2nc3c(c(=O)[nH]c(=O)n3C)n2Cc2ccc(F)cc2)cc1	inactive: -109%	–
CCOC(=O)N1CCN(CC(=O)Nc2nc3ccccc3s2)CC1	–	inconclusive: 9.28 µM [inhibitor, single point]
CCn1cc(S(=O)(=O)CC(=O)NC2CCCCC2)c2ccccc21	–	inconclusive: 0.0026 µM [inhibitor, full curve, poor fit]
CC(=O)N1CCCC(C(=O)c2ccc(Oc3ccccc3)cc2)C1 (stereo unspecified)	–	inconclusive: 18.5 µM [inhibitor, single point]
Cc1ccsc1C(=O)C1CCCN(Cc2cnc(N(C)C)s2)C1 (stereo unspecified)	–	inconclusive: 0.465 µM [inhibitor, full curve, poor fit]
CCn1c(=O)n(CCc2ccccc2)c(=O)c2c3c(sc21)CCCC3	–	inconclusive: 11.7 µM [inhibitor, single point]
CCOc1ccc(OCC)c(NC(=O)C(NS(=O)(=O)c2ccc3c(c2)oc(=O)n3C)C(C)C)c1 (stereo unspecified)	–	inconclusive: 18.5 µM [inhibitor, single point]
COc1ccc(NC(=S)N2CCN(C(=O)c3ccco3)CC2)c(OC)c1	–	inconclusive: 13.1 µM [inhibitor, single point]
Cc1ccc(OCC(=O)Nc2ccc(S(=O)(=O)Nc3ccccn3)cc2)cc1C	–	inconclusive: 11.7 µM [inhibitor, single point]
COc1ccc2c(c1)nc(SCC(=O)c1ccc(Br)s1)n2C	inactive: 0%	–
Cc1cc(C(=O)C(C)OC(=O)c2ccc(NC(=O)CC#N)cc2)c(C)n1-c1ccc(OC(F)F)cc1 (stereo unspecified)	–	inconclusive: 14.7 µM [inhibitor, single point]
Cc1ccc(CNC(=O)CN(C)S(=O)(=O)c2ccc3c(c2)n(C)c(=O)c(=O)n3C)cc1	–	inconclusive: 3.7 µM [inhibitor, partial curve]
CCC(=O)NC(=S)Nc1cccc(NC(=O)c2ccccc2C)c1	inactive: 18.1%	–
Clc1cccc(Cl)c1CSc1nnc(/C=C/c2ccccc2)o1	inactive: 0%	–
O=C(CN(C(=O)CSc1nnc(COc2ccccc2)o1)c1ccc(F)cc1)NC1CCCCC1	–	inconclusive: 10.4 µM [inhibitor, single point]
CCCCCNS(=O)(=O)c1cc(C)ccc1OC	–	active: 11.7 µM
CCN1CCN(C(c2cccs2)C(C)NC(=O)C(=O)N2CCCCC2)CC1 (stereo unspecified)	–	inconclusive: 13.1 µM [inhibitor, single point]

11 successive records already listed:
SMILES	activity change, negative = inhibition	Potency
CCn1cc(S(=O)(=O)CC(=O)NC2CCCCC2)c2ccccc21	–	inconclusive: 0.0026 µM [inhibitor, full curve, poor fit]
CC(=O)N1CCCC(C(=O)c2ccc(Oc3ccccc3)cc2)C1 (stereo unspecified)	–	inconclusive: 18.5 µM [inhibitor, single point]
Cc1ccsc1C(=O)C1CCCN(Cc2cnc(N(C)C)s2)C1 (stereo unspecified)	–	inconclusive: 0.465 µM [inhibitor, full curve, poor fit]
CCn1c(=O)n(CCc2ccccc2)c(=O)c2c3c(sc21)CCCC3	–	inconclusive: 11.7 µM [inhibitor, single point]
CCOc1ccc(OCC)c(NC(=O)C(NS(=O)(=O)c2ccc3c(c2)oc(=O)n3C)C(C)C)c1 (stereo unspecified)	–	inconclusive: 18.5 µM [inhibitor, single point]
COc1ccc(NC(=S)N2CCN(C(=O)c3ccco3)CC2)c(OC)c1	–	inconclusive: 13.1 µM [inhibitor, single point]
Cc1ccc(OCC(=O)Nc2ccc(S(=O)(=O)Nc3ccccn3)cc2)cc1C	–	inconclusive: 11.7 µM [inhibitor, single point]
COc1ccc2c(c1)nc(SCC(=O)c1ccc(Br)s1)n2C	inactive: 0%	–
Cc1cc(C(=O)C(C)OC(=O)c2ccc(NC(=O)CC#N)cc2)c(C)n1-c1ccc(OC(F)F)cc1 (stereo unspecified)	–	inconclusive: 14.7 µM [inhibitor, single point]
Cc1ccc(CNC(=O)CN(C)S(=O)(=O)c2ccc3c(c2)n(C)c(=O)c(=O)n3C)cc1	–	inconclusive: 3.7 µM [inhibitor, partial curve]
CCC(=O)NC(=S)Nc1cccc(NC(=O)c2ccccc2C)c1	inactive: 18.1%	–

Continuation.

SMILES	activity change, negative = inhibition	Potency
CCNC(=S)N1CCCCC1CO (stereo unspecified)	inactive: -10.7%	–
CCOC(=O)c1[nH]c(C)c(C(=O)OCC(=O)NCc2ccc(OC)c(OC)c2)c1C	–	inconclusive: 3.7 µM [inhibitor, partial curve]
CC(/C=N/NC(=O)c1ccc(Br)cc1)=C\c1ccccc1	–	inconclusive: 14.7 µM [inhibitor, partial curve, poor fit]
CCOC(=O)c1oc2ccccc2c1COC(=O)CNC(=O)c1cccc(C)c1	inactive: 5.67%	–
O=C(COC(=O)c1ccc(NS(=O)(=O)c2ccc3c(c2)OCCO3)cc1)NC1CC1	–	inconclusive: 4.15 µM [inhibitor, single point]
COc1ccccc1C(C[N+](=O)[O-])c1c(N)n(C)c(=O)n(C)c1=O (stereo unspecified)	–	inconclusive: 13.1 µM [inhibitor, single point]
Fc1cccc2sc(N3CCCCC3)nc12	inactive: 8.64%	–
CCc1ccc(C2C(C#N)=C(N)C(C#N)(C#N)C3=CCC(C(C)(C)C)CC32)cc1 (stereo unspecified)	–	active: 13.1 µM
COc1ccc(-n2ccc(=O)c(C(=O)O)n2)cc1	inactive: -3.77%	–
Cc1cc(C)nc(NC(=O)/C=C/c2cccs2)c1	inactive: 199%	–
Clc1cccc(Cl)c1-c1noc(CN2CCOCC2)n1	–	inconclusive: 14.7 µM [inhibitor, partial curve, poor fit]
COc1cccc(-c2nc(NC(C)C)c3ccccc3n2)c1O	–	inconclusive: 18.5 µM [inhibitor, single point]
COc1cccc(C(=O)Nc2ccc(-c3nc4ccccc4o3)c(O)c2)c1	inactive: 16.7%	–
COc1ccc(C(C(=O)NC2CCCCC2)N(C(=O)CCCC(=O)Nc2ccccn2)c2ccc3c(c2)OCCO3)cc1 (stereo unspecified)	–	active: 9.28 µM
O=S(=O)(c1cccc(-c2csc(-c3cccnc3)n2)c1)N1CCCCC1	inactive: 54.6%	–
O=[N+]([O-])c1ccc(C(O)CN2CCN(C/C=C/c3ccccc3)CC2)cc1 (stereo unspecified)	–	active: 4.15 µM
CCc1ccc(CNC(=O)CN2C(=O)COc3ccccc32)cc1	–	inconclusive: 18.5 µM [inhibitor, single point]
O=C(NCc1cccnc1)c1ccc(N2CCOCC2)c([N+](=O)[O-])c1	–	inconclusive: 18.5 µM [inhibitor, partial curve, poor fit]
Cn1c2ccccc2c2nnc(SCC(=O)Nc3ccccc3F)nc21	–	inconclusive: 18.5 µM [inhibitor, single point]
CCOc1cccc(C(=O)Nc2ccc3ccccc3c2)c1	inactive: -55%	–
Cc1ccccc1C1N(c2nccs2)C(=O)C2CCCN21 (stereo unspecified)	–	inconclusive: 13.1 µM [inhibitor, partial curve, poor fit]
CCN(CC)C(=O)C12CC3CC(CC(Cl)(C3)C1)C2	–	inconclusive: 18.5 µM [inhibitor, single point]
O=C(NC1CCCCC1)C12CC3CC(CC(Cl)(C3)C1)C2	–	inconclusive: 13.1 µM [inhibitor, partial curve, poor fit]
